The supplement of paper PMC6411743
± gives the standard deviation of the averaged measurements. The entries are a selection whose mix differs from that of the whole data set.

What was measured:
Assay in all cases: NP40-soluble protein abundance relative to vehicle (solubility fold change) (ratio); higher = more soluble protein in presence of ATP
RPS19BP1 = target: T1, RPS19BP1 (UniProt Q86WX3)
T1 sequence (whole entry): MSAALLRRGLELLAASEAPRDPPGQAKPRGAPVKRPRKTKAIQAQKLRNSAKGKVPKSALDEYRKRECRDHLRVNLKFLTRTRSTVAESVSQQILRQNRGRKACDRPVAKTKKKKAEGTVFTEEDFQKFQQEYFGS
Procedure, shortened: (§1)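 Data come from three independent experiments in which Dounce-homogenised Jurkat crude lysate was treated at eight concentrations from 0.1 to 10 mM. Treatment ran 10 min at room temperature and then 3 min at 37 °C, after which 0.8% NP40 and benzonase were added for 60 min at 4 °C before ultracentrifugation. The supernatant underwent TMT labelling and LC-MS/MS, and vsn-normalised intensities were expressed as fold change against the detergent-processed vehicle in each replicate.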

SLFN11 = target: T2, SLFN11 (UniProt Q7Z7L1)
T2 sequence (whole entry): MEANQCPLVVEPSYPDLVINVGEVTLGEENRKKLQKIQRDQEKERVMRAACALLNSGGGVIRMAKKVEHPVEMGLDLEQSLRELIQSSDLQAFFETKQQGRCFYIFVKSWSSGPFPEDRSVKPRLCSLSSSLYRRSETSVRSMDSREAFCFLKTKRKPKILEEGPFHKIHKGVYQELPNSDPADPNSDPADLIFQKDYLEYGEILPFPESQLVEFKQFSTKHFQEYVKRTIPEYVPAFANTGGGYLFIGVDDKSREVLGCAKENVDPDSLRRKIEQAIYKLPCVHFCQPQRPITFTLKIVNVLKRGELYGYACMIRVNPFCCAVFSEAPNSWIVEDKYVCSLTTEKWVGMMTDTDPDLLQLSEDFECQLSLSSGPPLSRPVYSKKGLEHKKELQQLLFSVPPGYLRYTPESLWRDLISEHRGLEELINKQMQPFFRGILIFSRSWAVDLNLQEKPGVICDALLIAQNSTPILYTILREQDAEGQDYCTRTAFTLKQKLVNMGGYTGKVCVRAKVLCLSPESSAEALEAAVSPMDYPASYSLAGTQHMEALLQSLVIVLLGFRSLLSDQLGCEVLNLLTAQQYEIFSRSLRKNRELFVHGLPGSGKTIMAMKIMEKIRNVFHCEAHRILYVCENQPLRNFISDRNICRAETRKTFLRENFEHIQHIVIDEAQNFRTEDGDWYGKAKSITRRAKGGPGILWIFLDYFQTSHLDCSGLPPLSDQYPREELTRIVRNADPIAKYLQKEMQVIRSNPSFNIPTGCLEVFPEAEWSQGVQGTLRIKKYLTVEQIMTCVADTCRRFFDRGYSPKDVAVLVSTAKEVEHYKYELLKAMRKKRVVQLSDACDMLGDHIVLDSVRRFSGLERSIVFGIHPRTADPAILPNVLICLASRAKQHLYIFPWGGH
Procedure, shortened: as §1

SPATS2 = target: T3, SPATS2 (UniProt Q86XZ4)
T3 sequence (whole entry): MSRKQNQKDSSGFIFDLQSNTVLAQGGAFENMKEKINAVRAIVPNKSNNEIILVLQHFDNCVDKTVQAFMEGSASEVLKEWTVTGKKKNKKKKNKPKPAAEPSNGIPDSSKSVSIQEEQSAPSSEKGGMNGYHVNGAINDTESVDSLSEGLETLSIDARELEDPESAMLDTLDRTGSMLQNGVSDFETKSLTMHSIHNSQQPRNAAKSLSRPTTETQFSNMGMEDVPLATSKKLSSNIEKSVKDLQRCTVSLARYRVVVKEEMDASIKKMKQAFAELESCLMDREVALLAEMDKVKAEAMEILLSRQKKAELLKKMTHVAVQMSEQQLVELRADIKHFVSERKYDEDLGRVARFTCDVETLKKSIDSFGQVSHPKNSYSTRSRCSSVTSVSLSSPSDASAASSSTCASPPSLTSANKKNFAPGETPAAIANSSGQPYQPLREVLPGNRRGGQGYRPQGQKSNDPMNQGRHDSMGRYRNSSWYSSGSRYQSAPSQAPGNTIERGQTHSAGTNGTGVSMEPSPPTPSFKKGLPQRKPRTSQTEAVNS
Procedure, shortened: as §1

STX12 = target: T4, STX12 (UniProt Q86Y82)
T4 sequence (whole entry): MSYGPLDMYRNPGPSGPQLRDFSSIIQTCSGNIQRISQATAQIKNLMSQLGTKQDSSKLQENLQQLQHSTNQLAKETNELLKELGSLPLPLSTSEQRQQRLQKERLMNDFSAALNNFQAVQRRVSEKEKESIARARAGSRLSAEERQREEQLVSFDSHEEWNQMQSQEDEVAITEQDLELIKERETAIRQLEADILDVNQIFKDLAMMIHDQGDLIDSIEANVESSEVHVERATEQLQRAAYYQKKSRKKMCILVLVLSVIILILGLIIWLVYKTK
Procedure, shortened: as §1

TBC1D10C = target: T5, TBC1D10C (UniProt Q8IV04)
T5 sequence (whole entry): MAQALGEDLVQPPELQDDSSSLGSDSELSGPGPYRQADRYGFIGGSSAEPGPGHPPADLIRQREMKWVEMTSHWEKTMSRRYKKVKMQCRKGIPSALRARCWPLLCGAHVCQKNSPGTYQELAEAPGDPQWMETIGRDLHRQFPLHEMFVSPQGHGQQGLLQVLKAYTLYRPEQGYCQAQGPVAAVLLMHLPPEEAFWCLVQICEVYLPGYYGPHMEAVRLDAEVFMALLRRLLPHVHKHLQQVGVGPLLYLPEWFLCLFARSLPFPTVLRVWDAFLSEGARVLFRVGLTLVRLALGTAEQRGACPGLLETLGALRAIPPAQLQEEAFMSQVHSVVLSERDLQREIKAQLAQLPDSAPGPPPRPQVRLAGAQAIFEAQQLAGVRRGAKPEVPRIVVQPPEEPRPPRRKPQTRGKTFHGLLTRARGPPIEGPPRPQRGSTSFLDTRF
Procedure, shortened: as §1

**Q.** With `Nc1ncnc2c1ncn2[C@@H]1O[C@H](COP(=O)(O)OP(=O)(O)OP(=O)(O)O)[C@@H](O)[C@H]1O` [adenosine triphosphate] as the compound, how does the NP40-soluble protein abundance (RPS19BP1; concentration: 1mM) read?
**A.** The NP40-soluble protein abundance was 1.15 ± 0.033.

**Q.** What about the NP40-soluble protein abundance (RPS19BP1; concentration: 2mM) of the same compound?
**A.** The NP40-soluble protein abundance was 1.11 ± 0.12.

**Q.** What about the NP40-soluble protein abundance (RPS19BP1; concentration: 4mM) of the same compound?
**A.** Its NP40-soluble protein abundance is 1.12 ± 0.14.

**Q.** And the NP40-soluble protein abundance (RPS19BP1; concentration: 6mM)?
**A.** Its NP40-soluble protein abundance is 1.3 ± 0.081.

**Q.** What about the NP40-soluble protein abundance (RPS19BP1; concentration: 8mM) of the same compound?
**A.** The NP40-soluble protein abundance was 1.28 ± 0.11.

**Q.** What about the NP40-soluble protein abundance (RPS19BP1; concentration: 10mM) of the same compound?
**A.** Its NP40-soluble protein abundance is 1.42 ± 0.04.

**Q.** What about the NP40-soluble protein abundance (SLFN11; concentration: 1mM) of the same compound?
**A.** The NP40-soluble protein abundance was 1.05 ± 0.11.

**Q.** And the NP40-soluble protein abundance (SLFN11; concentration: 2mM)?
**A.** The NP40-soluble protein abundance was 1.04 ± 0.014.

**Q.** And the NP40-soluble protein abundance (SLFN11; concentration: 4mM)?
**A.** Its NP40-soluble protein abundance is 1.08 ± 0.064.

**Q.** And the NP40-soluble protein abundance (SLFN11; concentration: 6mM)?
**A.** The NP40-soluble protein abundance was 1 ± 0.072.

**Q.** And the NP40-soluble protein abundance (SLFN11; concentration: 8mM)?
**A.** Its NP40-soluble protein abundance is 1.137 ± 0.0079.

**Q.** What about the NP40-soluble protein abundance (SLFN11; concentration: 10mM) of the same compound?
**A.** Its NP40-soluble protein abundance is 1.12 ± 0.071.

**Q.** What about the NP40-soluble protein abundance (SPATS2; concentration: 1mM) of the same compound?
**A.** Its NP40-soluble protein abundance is 1.09 ± 0.097.

**Q.** What about the NP40-soluble protein abundance (SPATS2; concentration: 2mM) of the same compound?
**A.** Its NP40-soluble protein abundance is 1.2 ± 0.1.

**Q.** And the NP40-soluble protein abundance (SPATS2; concentration: 4mM)?
**A.** Its NP40-soluble protein abundance is 1.2627 ± 0.0011.

**Q.** What about the NP40-soluble protein abundance (SPATS2; concentration: 6mM) of the same compound?
**A.** The NP40-soluble protein abundance was 1.34 ± 0.025.

**Q.** And the NP40-soluble protein abundance (SPATS2; concentration: 8mM)?
**A.** The NP40-soluble protein abundance was 1.24 ± 0.027.

**Q.** And the NP40-soluble protein abundance (SPATS2; concentration: 10mM)?
**A.** Its NP40-soluble protein abundance is 1.3 ± 0.071.

**Q.** And the NP40-soluble protein abundance (STX12; concentration: 1mM)?
**A.** Its NP40-soluble protein abundance is 0.984 ± 0.056.

**Q.** And the NP40-soluble protein abundance (STX12; concentration: 2mM)?
**A.** The NP40-soluble protein abundance was 0.97 ± 0.018.

**Q.** What about the NP40-soluble protein abundance (STX12; concentration: 4mM) of the same compound?
**A.** The NP40-soluble protein abundance was 0.973 ± 0.028.

**Q.** What about the NP40-soluble protein abundance (STX12; concentration: 6mM) of the same compound?
**A.** Its NP40-soluble protein abundance is 1.03 ± 0.044.

**Q.** And the NP40-soluble protein abundance (STX12; concentration: 8mM)?
**A.** The NP40-soluble protein abundance was 0.971 ± 0.047.

**Q.** And the NP40-soluble protein abundance (STX12; concentration: 10mM)?
**A.** Its NP40-soluble protein abundance is 0.912 ± 0.086.

**Q.** What about the NP40-soluble protein abundance (TBC1D10C; concentration: 1mM) of the same compound?
**A.** Its NP40-soluble protein abundance is 1.09 ± 0.2.

**Q.** And the NP40-soluble protein abundance (TBC1D10C; concentration: 2mM)?
**A.** The NP40-soluble protein abundance was 0.969 ± 0.19.

**Q.** What about the NP40-soluble protein abundance (TBC1D10C; concentration: 4mM) of the same compound?
**A.** The NP40-soluble protein abundance was 0.734 ± 0.12.

**Q.** And the NP40-soluble protein abundance (TBC1D10C; concentration: 6mM)?
**A.** Its NP40-soluble protein abundance is 0.971 ± 0.19.

**Q.** What about the NP40-soluble protein abundance (TBC1D10C; concentration: 8mM) of the same compound?
**A.** The NP40-soluble protein abundance was 1.04 ± 0.15.

**Q.** And the NP40-soluble protein abundance (TBC1D10C; concentration: 10mM)?
**A.** Its NP40-soluble protein abundance is 1.08 ± 0.14.
